According to patent US9499601B2, “Molecular probe for sphingolipids” (Agency for Science, Technology and Research, priority 2006, dated 2016):

Test system: plasma membrane of SH-SY5Y neuroblastoma cells
Experiment: Fluorescence Correlation Spectroscopy (FCS) diffusion time at the plasma membrane
Type: cell-based, human
Conditions: for diffusion time τD on average: untreated cells

| Compound | diffusion time τD under cholesterol depletion (4 mM MbCD for 30 minutes) [ms] | diffusion time τD on average [ms] |
| --- | --- | --- |
| CCCCCCCCCCCCCCCCCCN1/C(=C/C=C/C2=[N+](CCCCCCCCCCCCCCCCCC)c3ccccc3C2(C)C)C(C)(C)c2ccccc21.[O-][Cl+3]([O-])([O-])[O-] [DiI-C18] | 10.7 ± 0.58 | 10 |
| Cysteine-[AEEAc]2-DAEFRHDSGYEVHHQELVFFAEDVG (N-terminal Cys-[AEEAc]2 spacer, Oregon Green label) [SBD-OG, SBD with Cys-[AEEAc]2 spacer, thiol-labelled with Oregon Green] |  | 35 |
